From patent US20240343824A1 (MERUS N V, published 2024) come the findings set out here.

In assay [1] the target is T1, full length human LGR5-FLAG-HA on Freestyle 293F or CHO-K1 cells (human) (UniProt O75473).
T1 sequence: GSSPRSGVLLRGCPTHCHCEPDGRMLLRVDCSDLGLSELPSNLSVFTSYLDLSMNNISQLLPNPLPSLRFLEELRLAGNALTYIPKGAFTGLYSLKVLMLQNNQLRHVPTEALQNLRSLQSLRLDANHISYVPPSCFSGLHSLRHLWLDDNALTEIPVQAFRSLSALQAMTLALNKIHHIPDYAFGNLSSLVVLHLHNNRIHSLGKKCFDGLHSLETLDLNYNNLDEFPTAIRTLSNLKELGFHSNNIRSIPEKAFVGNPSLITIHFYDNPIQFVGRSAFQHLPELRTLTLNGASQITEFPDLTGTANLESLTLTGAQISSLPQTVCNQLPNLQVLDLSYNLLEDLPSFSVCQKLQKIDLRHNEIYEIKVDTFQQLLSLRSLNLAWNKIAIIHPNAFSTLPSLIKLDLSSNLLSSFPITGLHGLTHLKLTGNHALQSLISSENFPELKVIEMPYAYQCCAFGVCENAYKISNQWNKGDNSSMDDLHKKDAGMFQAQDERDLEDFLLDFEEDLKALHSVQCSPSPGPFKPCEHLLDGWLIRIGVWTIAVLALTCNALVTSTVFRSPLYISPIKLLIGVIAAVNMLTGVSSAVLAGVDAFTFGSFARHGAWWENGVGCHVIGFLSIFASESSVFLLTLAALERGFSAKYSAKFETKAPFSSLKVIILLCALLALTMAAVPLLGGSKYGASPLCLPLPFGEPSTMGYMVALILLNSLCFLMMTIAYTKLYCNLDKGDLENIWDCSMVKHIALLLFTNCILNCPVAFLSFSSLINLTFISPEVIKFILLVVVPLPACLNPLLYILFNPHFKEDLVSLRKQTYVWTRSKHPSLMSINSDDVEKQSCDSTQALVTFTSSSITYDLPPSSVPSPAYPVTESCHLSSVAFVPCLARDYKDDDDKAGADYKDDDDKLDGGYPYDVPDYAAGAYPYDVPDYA
In words: competition FACS on CHO-K1 cells over-expressing human LGR5; PG7711 fixed at 50 ng/ml, bispecifics at 100 ng/ml, detected with PE-labelled anti-human IgG; MFI normalised to no R-spondin1 [left panel (RSPO-1 competition].

Assay [2] concerns the target T1, full length human LGR5-FLAG-HA on Freestyle 293F or CHO-K1 cells (human). In words: competition FACS on CHO-K1 cells over-expressing human LGR5; competitor PG7711p02 (OMP88R20 copy) fixed at 50 ng/ml, detected with anti-human IgG PE; MFI normalised to no R-spondin1.

These are yes or no findings as the source states them, for the method shown. Some entries that bind do so weakly or less than the wild type. Sequences can lack the tags named with a protein.

B1: R-spondin1 (ligand, UniProt Q2MKA7 21-263, looked up)
chain: SRGIKGKRQRRISAEGSQACAKGCELCSEVNGCLKCSPKLFILLERNDIRQVGVCLPSCPPGYFDARNPDMNKCIKCKIEHCEACFSHNFCTKCKEGLYLHKGRCYPACPEGSSAANGTMECSSPAQCEMSEWSPWGPCSKKQQLCGFRRGSEERTRRVLHAPVGDHAACSDTKETRRCTVRRVPCPEGQKRRKGGQGRRENANRNLARKESKEAGAGSRRRKGQQQQQQQGTVGPLTSAGPA
notes: also called RSPO1; R-spondin1 (R&D Systems, cat. nr. 4645-RF/CF)
In the case of B1, the binding result in assay [1] and in assay [2] was “binds” throughout.
